Sequences of proteins named here, by UniProt entry; tags and fusion partners are left off.
UniProt P12814: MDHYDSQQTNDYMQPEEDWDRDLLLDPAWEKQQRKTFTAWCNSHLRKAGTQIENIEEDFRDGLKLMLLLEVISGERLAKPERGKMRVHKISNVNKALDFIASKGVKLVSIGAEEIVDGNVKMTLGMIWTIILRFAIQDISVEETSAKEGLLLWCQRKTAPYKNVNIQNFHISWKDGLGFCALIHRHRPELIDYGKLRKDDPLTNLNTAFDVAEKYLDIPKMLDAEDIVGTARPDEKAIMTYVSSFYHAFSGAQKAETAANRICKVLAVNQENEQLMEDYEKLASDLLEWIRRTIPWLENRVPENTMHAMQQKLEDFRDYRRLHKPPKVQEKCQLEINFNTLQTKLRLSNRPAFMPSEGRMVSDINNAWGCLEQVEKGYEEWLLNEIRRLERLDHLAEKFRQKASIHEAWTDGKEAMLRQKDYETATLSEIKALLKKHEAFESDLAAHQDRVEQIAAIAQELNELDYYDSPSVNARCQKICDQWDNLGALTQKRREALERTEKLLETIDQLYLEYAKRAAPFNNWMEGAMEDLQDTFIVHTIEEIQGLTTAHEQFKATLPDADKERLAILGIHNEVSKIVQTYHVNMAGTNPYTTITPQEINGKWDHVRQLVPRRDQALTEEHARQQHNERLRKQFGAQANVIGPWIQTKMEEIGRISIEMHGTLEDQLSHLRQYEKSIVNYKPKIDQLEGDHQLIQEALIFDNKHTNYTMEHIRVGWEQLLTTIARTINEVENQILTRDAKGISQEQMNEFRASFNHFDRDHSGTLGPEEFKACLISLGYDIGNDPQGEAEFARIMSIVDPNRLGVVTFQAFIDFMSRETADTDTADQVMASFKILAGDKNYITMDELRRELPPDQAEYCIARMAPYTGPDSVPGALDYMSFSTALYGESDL
UniProt O00151: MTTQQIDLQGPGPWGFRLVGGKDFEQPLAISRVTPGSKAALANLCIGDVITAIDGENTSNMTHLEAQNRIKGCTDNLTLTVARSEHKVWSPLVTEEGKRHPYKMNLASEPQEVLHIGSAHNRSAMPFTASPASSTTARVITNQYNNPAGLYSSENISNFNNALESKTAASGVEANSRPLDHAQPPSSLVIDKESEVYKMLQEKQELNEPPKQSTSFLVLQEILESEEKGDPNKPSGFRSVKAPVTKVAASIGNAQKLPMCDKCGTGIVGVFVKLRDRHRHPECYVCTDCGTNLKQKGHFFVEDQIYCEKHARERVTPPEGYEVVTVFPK
UniProt P67936: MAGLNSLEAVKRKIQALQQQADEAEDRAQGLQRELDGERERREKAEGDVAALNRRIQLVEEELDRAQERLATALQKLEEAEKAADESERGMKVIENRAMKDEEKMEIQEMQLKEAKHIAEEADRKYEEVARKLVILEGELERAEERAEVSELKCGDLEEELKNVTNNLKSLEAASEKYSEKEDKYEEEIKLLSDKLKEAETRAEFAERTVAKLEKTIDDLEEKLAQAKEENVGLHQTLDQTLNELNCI

According to doi:10.1101/2024.07.09.602822:

Assays:
Assay in all cases: proximity labelling
[1] = target: ACTN1 fused with TurboID (UniProt P12814)
[2] = target: ArgBP2 fused with TurboID
[3] = target: PDLIM1 fused with TurboID (UniProt O00151)
[4] = target: TPM4 fused with TurboID (UniProt P67936)

Measured: binding

B1: PFKM (Phosphofructokinase muscle type) (enzyme, UniProt P08237 1-780)
chain: MTHEEHHAAKTLGIGKAIAVLTSGGDAQGMNAAVRAVVRVGIFTGARVFFVHEGYQGLVDGGDHIKEATWESVSMMLQLGGTVIGSARCKDFREREGRLRAAYNLVKRGITNLCVIGGDGSLTGADTFRSEWSDLLSDLQKAGKITDEEATKSSYLNIVGLVGSIDNDFCGTDMTIGTDSALHRIMEIVDAITTTAQSHQRTFVLEVMGRHCGYLALVTSLSCGADWVFIPECPPDDDWEEHLCRRLSETRTRGSRLNIIIVAEGAIDKNGKPITSEDIKNLVVKRLGYDTRVTVLGHVQRGGTPSAFDRILGSRMGVEAVMALLEGTPDTPACVVSLSGNQAVRLPLMECVQVTKDVTKAMDEKKFDEALKLRGRSFMNNWEVYKLLAHVRPPVSKSGSHTVAVMNVGAPAAGMNAAVRSTVRIGLIQGNRVLVVHDGFEGLAKGQIEEAGWSYVGGWTGQGGSKLGTKRTLPKKSFEQISANITKFNIQGLVIIGGFEAYTGGLELMEGRKQFDELCIPFVVIPATVSNNVPGSDFSVGADTALNTICTTCDRIKQSAAGTKRRVFIIETMGGYCGYLATMAGLAAGADAAYIFEEPFTIRDLQANVEHLVQKMKTTVKRGLVLRNEKCNENYTTDFIFNLYSEEGKGIFDSRKNVLGHMQQGGSPTPFDRNFATKMGAKAMNWMSGKIKESYRNGRIFANTPDSGCVLGMRKRALVFQPVAELKDQTDFEHRIPKEQWWLKLRPILKILAKYEIDLDTSDHAHLEHITRKRSGEAAV
binds: [1] | [2] | [3] | [4]

These are yes or no findings as the source states them, for the method shown. In cells and extracts the contact can be indirect. These calls come from enrichment with a bait or labelling near it, and not all partners need be listed.
